Results reported in publication PMC7346168.

B1: GLUTAMINE … (protein, UniProt Q43127 46-430)
chain: GFRVLALQSDNSTVNRVETLLNLDTKPYSDRIIAEYIWIGGSGIDLRSKSRTIEKPVEDPSELPKWNYDGSSTGQAPGEDSEVILYPQAIFRDPFRGGNNILVICDTWTPAGEPIPTNKRAKAAEIFSNKKVSGEVPWFGIEQEYTLLQQNVKWPLGWPVGAFPGPQGPYYCGVGADKIWGRDISDAHYKACLYAGINISGTNGEVMPGQWEFQVGPSVGIDAGDHVWCARYLLERITEQAGVVLTLDPKPIEGDWNGAGCHTNYSTKSMREEGGFEVIKKAILNLSLRHKEHISAYGEGNERRLTGKHETASIDQFSWGVANRGCSIRVGRDTEAKGKGYLEDRRPASNMDPYIVTSLLAETTLLWEPTLEAEALAAQKLSLNV
B2: Delta-aminolevulinic acid dehydratase 1 (protein, UniProt Q9SFH9 53-430)
chain: ASESGNGHAKKLGMSDAECEAAVAAGNVPEAPPVPPKPAAPVGTPIIKPLNLSRRPRRNRASPVTRAAFQETDISPANFVYPLFIHEGEEDTPIGAMPGCYRLGWRHGLVQEVAKARAVGVNSIVLFPKVPEALKNSTGDEAYNDNGLVPRTIRLLKDKYPDLIIYTDVALDPYSSDGHDGIVREDGVIMNDETVHQLCKQAVSQARAGADVVSPSDMMDGRVGAIRSALDAEGFQNVSIMSYTAKYASSFYGPFREALDSNPRFGDKKTYQMNPANYREALIEAREDEAEGADILLVKPGLPYLDIIRLLRDKSPLPIAAYQVSGEYSMIKAGGVLKMIDEEKVMMESLMCLRRAGADIILTYFALQAATCLCGEKR
B3: 50S ribosomal protein L5 (protein, UniProt O04603 40-262)
chain: VSASGTVLVEKSEAEKTQRLKTAYLERIIPALKEEFKYVNIHQVPKVQKIVVNCGIGDAAQNDKGLEAAMKDIALITGQKPIKTRARASIATFKIREDQPLGIAVTLRGDVMYSFLDRLINLALPRTRDFQGVSPSSFDGNGNYSIGVKDQGVFPEIRFDAVGKTRGMDVCISTTAKSDQEGQKLLALMGMPFREGGGGSTGAIVRKKKLKSHHFDAKGKGKR
B4: Isoamylase 3 (protein, UniProt Q9M0S5 71-764)
chain: EEEASTMTETKLFKVSSGEVSPLGVSQVDKGINFALFSQNATSVTLCLSLSQSGKDDTDDDGMIELVLDPSVNKTGDTWHICVEDLPLNNVLYGYRVDGPGEWQQGHRFDRSILLLDPYAKLVKGHSSFGDSSQKFAQFYGTYDFESSPFDWGDDYKFPNIPEKDLVIYEMNVRAFTADESSGMDPAIGGSYLGFIEKIPHLQDLGINAVELLPVFEFDELELQRRSNPRDHMVNTWGYSTVNFFAPMSRYASGEGDPIKASKEFKEMVKALHSAGIEVILDVVYNHTNEADDKYPYTTSFRGIDNKVYYMLDPNNQLLNFSGCGNTLNCNHPVVMELILDSLRHWVTEYHVDGFRFDLASVLCRATDGSPLSAPPLIRAIAKDSVLSRCKIIAEPWDCGGLYLVGKFPNWDRWAEWNGMYRDDVRRFIKGDSGMKGSFATRVSGSSDLYQVNQRKPYHGVNFVIAHDGFTLRDLVSYNFKHNEANGEGGNDGCNDNHSWNCGFEGETGDAHIKSLRTRQMKNFHLALMISQGTPMMLMGDEYGHTRYGNNNSYGHDTSLNNFQWKELDAKKQNHFRFFSEVIKFRHSHHVLKHENFLTQGEITWHEDNWDNSESKFLAFTLHDGIGGRDIYVAFNAHDYFVKALIPQPPPGKQWFRVADTNLESPDDFVREGVAGVADTYNVAPFSSILLQSK
B5: HTPA reductase 1 (protein, UniProt O80574 52-347)
chain: SMTAMADSGEEAVKSVLPGNGISIMVNGCSGKMGKAVIKAADSAGVNIVPISFGSAGEDGQRVEVCGKEITVHGPTEREKVLSSVFEKHPELIVVDYTIPSAVNDNAELYSKVGVPFVMGTTGGDRNKLYETVEEAKIYAVISPQMGKQVVAFLAAMEIMAEQFPGAFSGYSLDVMESHQASKLDASGTAKAVISCFQELGVSYDMDQIQLIRDPKQQVEMVGVPEEHISGHAFHLYHLTSPDETVSFEFQHNVCGRSIYAEGTVDAVLFLAKKIRLKADQRIYNMIDVLREGNMR
B6: Beta-amylase 3 (protein, UniProt O23553 50-548)
chain: EMKFTHEKTFTPEGETLEKWEKLHVLSYPHSKNDASVPVFVMLPLDTVTMSGHLNKPRAMNASLMALKGAGVEGVMVDAWWGLVEKDGPMNYNWEGYAELIQMVQKHGLKLQVVMSFHQCGGNVGDSCSIPLPPWVLEEISKNPDLVYTDKSGRRNPEYISLGCDSVPVLRGRTPIQVYSDFMRSFRERFEGYIGGVIAEIQVGMGPCGELRYPSYPESNGTWRFPGIGEFQCYDKYMKSSLQAYAESIGKTNWGTSGPHDAGEYKNLPEDTEFFRRDGTWNSEYGKFFMEWYSGKLLEHGDQLLSSAKGIFQGSGAKLSGKVAGIHWHYNTRSHAAELTAGYYNTRNHDGYLPIAKMFNKHGVVLNFTCMEMKDGEQPEHANCSPEGLVKQVQNATRQAGTELAGENALERYDSSAFGQVVATNRSDSGNGLTAFTYLRMNKRLFEGQNWQQLVEFVKNMKEGGHGRRLSKEDTTGSDLYVGFVKGKIAENVEEAALV
B7: CHLOROPLAST PROTEIN 12-1 (leaf protein) (protein, UniProt O22914 48-124)
chain: TSEGEISEKVEKSIQEAKETCADDPVSGECVAAWDEVEELSAAASHARDKKKAGGSDPLEEYCNDNPETDECRTYDN
B8: Monodehydroascorbate reductase 6 (protein, UniProt P92947 52-493)
chain: VTASFANENREFVIVGGGNAAGYAARTFVENGMADGRLCIVTKEAYAPYERPALTKAYLFPPEKKPARLPGFHTCVGGGGERQTPDWYKEKGIEVIYEDPVAGADFEKQTLTTDAGKQLKYGSLIIATGCTASRFPDKIGGHLPGVHYIREVADADSLIASLGKAKKIVIVGGGYIGMEVAAAAVAWNLDTTIVFPEDQLLQRLFTPSLAQKYEELYRQNGVKFVKGASINNLEAGSDGRVSAVKLADGSTIEADTVVIGIGAKPAIGPFETLAMNKSIGGIQVDGLFRTSTPGIFAIGDVAAFPLKIYDRMTRVEHVDHARRSAQHCVKSLLTAHTDTYDYLPYFYSRVFEYEGSPRKVWWQFFGDNVGETVEVGNFDPKIATFWIESGRLKGVLVESGSPEEFQLLPKLARSQPLVDKAKLASASSVEEALEIAQAALQS
B9: 50S ribosomal protein L27 (protein, UniProt Q9FLN4 59-198)
chain: AHKKGAGSTKNGRDSPGQRLGVKIYGDQVAKPGAIIVRQRGTKFHAGKNVGIGKDHTIFSLIDGLVKFEKFGPDRKKISVYPREIVPENPNSYRARKRENFRLQREKKKARRENYSYTLPTPELVLASASVDDAEANPEC
B10: NADP-dependent malic enzyme 2 (protein, UniProt Q9LYG3 1-588)
chain: MGSTPTDLPGEDVADNRSGVGGGISDVYGEDSATLDQLVTPWVTSVASGYTLMRDPRYNKGLAFTDKERDAHYLTGLLPPVILSQDVQERKVMHNLRQYTVPLQRYMALMDLQERNERLFYKLLIDNVEELLPVVYTPTVGEACQKYGSIFRKPQGLYISLNEKGKILEVLKNWPQRGIQVIVVTDGERILGLGDLGCQGMGIPVGKLSLYTALGGIRPSACLPITIDVGTNNEKLLNDEFYIGLKQRRATGQEYAEFLHEFMCAVKQNYGEKVLVQFEDFANHNAFDLLSKYSDSHLVFNDDIQGTASVVLAGLIAAQKVLGKKLADHTFLFLGAGEAGTGIAELIALKISKETGAPITETRKKIWLVDSKGLIVSSRKESLQHFKQPWAHEHKPVKDLIGAVNAIKPTVLIGTSGVGQTFTKEVVEAMATNNEKPLILALSNPTSQAECTAEQAYTWTKGRAIFGSGSPFDPVVYDGKTYLPGQANNCYIFPGLGLGLIMSGAIRVRDDMLLAASEALAAQVTEEHYANGLIYPPFSNIREISANIAACVAAKTYDLGLASNLPRAKDLVKFAESSMYSPVYRNYR
B11: MECDP synthase (protein, UniProt Q9CAK8 53-231)
chain: AASSAVDVNESVTSEKPTKTLPFRIGHGFDLHRLEPGYPLIIGGIVIPHDRGCEAHSDGDVLLHCVVDAILGALGLPDIGQIFPDSDPKWKGAASSVFIKEAVRLMDEAGYEIGNLDATLILQRPKISPHKETIRSNLSKLLGADPSVVNLKAKTHEKVDSLGENRSIAAHTVILLMKK
B12: 30S ribosomal protein S10 (protein, UniProt Q9LK61 57-191)
chain: AVPDTLDPTPEILDEPASEVPSSSSISVDADKMAPKQKIRIKLRSYWVPLIEDSCKQILDAARNTNAKTMGPVPLPTKKRIYCVLKSPHVHKDARFHFEIRTHQRMIDILYPTAQTIDSLMQLDLPAGVDVEVKL

Target: T1, 2-CysPRXA C54S (pseudo-reduced variant) (Arabidopsis) (UniProt Q96291)
T1 sequence: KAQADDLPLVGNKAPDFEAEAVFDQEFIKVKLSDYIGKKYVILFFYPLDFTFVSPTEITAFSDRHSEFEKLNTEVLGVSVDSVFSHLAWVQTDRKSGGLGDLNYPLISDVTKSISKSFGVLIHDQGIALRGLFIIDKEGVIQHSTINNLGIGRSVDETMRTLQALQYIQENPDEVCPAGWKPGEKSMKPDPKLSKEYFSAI
Assay: affinity purification with mass spectrometry; reducing: his6-tagged 2-CysPRXA variant (3 mg) on Ni-NTA-agarose pretreated with 10 mM DTT; leaf extract (50 mg protein) made with 10 mM DTT; 50 mM HEPES pH 8.0, 1 h, 4 °C; stepwise elution with 1 M NaCl, 10 mM DTT, 250 mM imidazole; hits not found on the column without 2-CysPRX; only the target purified

binding, binds:
B1

Target: T2, 2-cysteine peroxiredoxin A, wild type (2-CysPRXA WT) (Arabidopsis) (UniProt Q96291)
T2 sequence: T1 sequence with S54C
Assay: as above

binding, binds:
B2

Target: T1, 2-CysPRXA C54S (pseudo-reduced variant) (Arabidopsis)
Assay: affinity purification with mass spectrometry; oxidizing: his6-tagged 2-CysPRXA variant (3 mg) on Ni-NTA-agarose pretreated with 1 mM H2O2; leaf extract (50 mg protein) made with 1 mM H2O2; 50 mM HEPES pH 8.0, 1 h, 4 °C; stepwise elution with 1 M NaCl, 10 mM DTT, 250 mM imidazole; hits not found on the column without 2-CysPRX; only the target purified

binding, binds:
B3
B4
B5
B6
B1
B7
B8
B9
B10
B11
B12

Target: T3, 2-CysPRXA C54D (pseudo-hyperoxidized variant) (Arabidopsis) (UniProt Q96291)
T3 sequence: T1 sequence with S54D
Assay: as above

binding, binds:
B7

Positions count from the first letter of the chain named. Results are given in words; binding and its absence hold for the method and conditions named. In cells and extracts the contact can be indirect. These calls come from enrichment with a bait or labelling near it, and not all partners need be listed.
